Patent publication CN117866904A
These are yes or no findings as the source states them, for the method shown. Some binding calls cover weakened binding; strength is not graded here. For some assays here: Sequences can lack the tags named with a protein.

The chains behind the UniProt entries cited, without tags or fusion partners. Residues count along the entry.
UniProt Q96F46, residues 33-866: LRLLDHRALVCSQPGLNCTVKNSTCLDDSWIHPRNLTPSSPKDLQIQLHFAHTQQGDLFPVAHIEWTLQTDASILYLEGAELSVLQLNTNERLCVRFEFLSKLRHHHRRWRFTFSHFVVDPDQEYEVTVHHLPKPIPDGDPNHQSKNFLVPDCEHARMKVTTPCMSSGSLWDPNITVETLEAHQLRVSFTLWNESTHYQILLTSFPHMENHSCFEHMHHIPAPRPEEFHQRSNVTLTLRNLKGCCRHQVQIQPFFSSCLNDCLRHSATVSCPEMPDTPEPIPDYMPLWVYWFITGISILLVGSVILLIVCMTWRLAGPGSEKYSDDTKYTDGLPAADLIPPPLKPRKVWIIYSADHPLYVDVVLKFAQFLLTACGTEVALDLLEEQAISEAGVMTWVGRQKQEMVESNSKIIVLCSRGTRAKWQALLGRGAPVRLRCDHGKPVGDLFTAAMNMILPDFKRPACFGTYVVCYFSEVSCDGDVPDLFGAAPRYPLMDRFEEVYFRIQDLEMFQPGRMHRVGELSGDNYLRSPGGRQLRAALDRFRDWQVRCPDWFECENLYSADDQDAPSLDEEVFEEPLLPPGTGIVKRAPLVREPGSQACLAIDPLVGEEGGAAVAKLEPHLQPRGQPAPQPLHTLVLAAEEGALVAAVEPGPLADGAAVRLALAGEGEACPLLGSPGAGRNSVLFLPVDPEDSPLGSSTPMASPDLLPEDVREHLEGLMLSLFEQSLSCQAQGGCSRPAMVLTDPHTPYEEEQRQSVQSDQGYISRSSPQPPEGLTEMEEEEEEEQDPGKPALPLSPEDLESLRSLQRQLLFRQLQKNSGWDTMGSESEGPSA

What was measured:
IL-17RA = IL-17RA (UniProtKB: Q96F46), overexpressed on 293F-IL-17RA-IL-17Rc-ACT1-NFκB-Luc reporter cells (UniProt Q96F46); assay: recombinant IL-17A on 293 cells overexpressing IL-17RA and IL-17RC
IL-17RC = target: T1, IL-17RC (UniProtKB: Q8NAC3), overexpressed on 293F-IL-17RA-IL-17Rc-ACT1-NFκB-Luc reporter cells (UniProt Q8NAC3); assay: as above
T1 sequence (looked up): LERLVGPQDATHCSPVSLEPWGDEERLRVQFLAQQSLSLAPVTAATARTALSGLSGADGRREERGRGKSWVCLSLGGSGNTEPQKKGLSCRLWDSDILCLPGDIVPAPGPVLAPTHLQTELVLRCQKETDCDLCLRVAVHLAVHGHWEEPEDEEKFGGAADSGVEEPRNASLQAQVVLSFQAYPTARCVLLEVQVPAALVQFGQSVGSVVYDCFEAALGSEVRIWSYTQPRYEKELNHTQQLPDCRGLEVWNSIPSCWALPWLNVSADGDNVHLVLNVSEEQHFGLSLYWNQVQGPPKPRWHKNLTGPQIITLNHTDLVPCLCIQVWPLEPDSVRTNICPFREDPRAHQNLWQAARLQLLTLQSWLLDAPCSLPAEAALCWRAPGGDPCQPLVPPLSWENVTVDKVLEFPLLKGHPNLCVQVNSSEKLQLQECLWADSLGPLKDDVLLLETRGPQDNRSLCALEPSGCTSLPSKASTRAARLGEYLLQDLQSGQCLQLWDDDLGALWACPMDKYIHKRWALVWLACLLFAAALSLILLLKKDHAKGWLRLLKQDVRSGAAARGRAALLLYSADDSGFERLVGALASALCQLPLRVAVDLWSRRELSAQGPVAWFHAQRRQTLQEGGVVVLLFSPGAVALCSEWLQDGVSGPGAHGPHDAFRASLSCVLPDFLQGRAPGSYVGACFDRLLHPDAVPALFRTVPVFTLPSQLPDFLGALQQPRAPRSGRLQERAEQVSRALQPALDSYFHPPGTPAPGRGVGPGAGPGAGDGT

binding (IL-17RA): binds
binding (IL-17RC): binds
Substance: IL-17A重组蛋白(抗原), IL-17 antigen with a C-terminal 6×His tag, expressed in E. coli BL21 (from UniProt Q16552 24-155) (ligand)
